{
  "source": "PubChem BioAssay AID504444",
  "about": "(National Center for Advancing Translational Sciences (NCATS), 2011)",
  "note": "Screen size: about 360,000 compounds; about 7,500 (2.1%) were called active. The inconclusive results got no clear call from the source; some entries with a clear call stand among them for comparison. Calls come from the whole dose curve; as a rule, active = well fitted inhibition curve with a large enough effect; inconclusive = small, poorly fitted or top-dose-only effect, or effect the other way; inactive = flat fitted curve, though single readings scatter. Potencies of inconclusive entries are doubtful fits and often do not repeat. Potency is the fitted concentration of half-maximal effect.",
  "data": [
    {"assay": "Nrf2 qHTS screen for inhibitors; note: nearly all actives have a fitted effect of over 60% in size", "details": "A549 ARE-Fluc reporter, luciferase luminescence, 18-24 h; series mostly up to 46 µM", "how_it_was_run": "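Nrf2 activity is the BugLite luminescence, read 15 min after reagent at room temperature, following CellTiter-Fluor cytotoxicity readout (30 min, 37C). Compound titrations were applied for 18-24 h to 5000 A549 ARE_Fluc cells/well in 5% FBS OPTI-MEM.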", "values": [
      {"smiles": "NC(=O)COC(=O)c1ccc2noc(-c3ccccc3)c2c1", "Potency": "inconclusive: 2.31 µM [activator, full curve]"},
      {"smiles": "CSc1nc(-c2ccc(Cl)cc2)nn1S(=O)(=O)c1ccc(Cl)cc1", "Potency": "inconclusive: 18.4 µM [activator, single point]"},
      {"smiles": "CC1CCN(C2=NC(=O)/C(=C/c3ccccc3F)S2)CC1", "Potency": "inconclusive: 0.92 µM [activator, full curve]"},
      {"smiles": "N#CCCN1CCCc2cc(N=Nc3ccc(C(F)(F)F)cc3)ccc21", "Potency": "inconclusive: 13 µM [activator, partial curve]"},
      {"smiles": "O=C(NCCc1ccccc1)c1c[nH]c2ccc(S(=O)(=O)Nc3ccccc3F)cc2c1=O", "Potency": "inconclusive: 23.1 µM [falling, single point]"},
      {"smiles": "COc1ccc(-c2cc(C(=O)Nc3ccccc3)on2)cc1", "Potency": "inconclusive: 25.9 µM [activator, partial curve]"},
      {"smiles": "COc1ccc(NC(=O)Nc2nnc(N(C)C3CCCCC3)s2)c(OC)c1", "Potency": "inconclusive: 29.1 µM [falling, single point]"},
      {"smiles": "O=C(Nc1ccc(C2SCCS2)cc1)c1ccccc1", "Potency": "inconclusive: 2.31 µM [activator, full curve]"},
      {"smiles": "COC(=O)c1sccc1NC(=S)N1CCCCC1C", "note": "(stereo unspecified)", "Potency": "inconclusive: 1.16 µM [activator, partial curve, poor fit]"},
      {"smiles": "O=C(c1ccc(S(=O)(=O)Nc2ccccc2)cc1)N1CCCCCCC1", "Potency": "inconclusive: 25.9 µM [falling, partial curve, poor fit]"},
      {"smiles": "CCOC(=O)C1=C(C)N(CCCC(=O)O)C(=O)NC1c1ccc2ccccc2c1", "note": "(stereo unspecified)", "Potency": "inactive"},
      {"smiles": "O=C(CCN1CCc2ccccc2C(c2ccccc2)C1)c1ccc2c(c1)OCCO2", "note": "(stereo unspecified)", "Potency": "inactive"},
      {"smiles": "CCN1CCN(c2nc(N(C)c3ccccc3)nc(N)c2[N+](=O)[O-])CC1", "Potency": "inconclusive: 29.1 µM [falling, single point]"},
      {"smiles": "CCn1nc(C)c(/C=N/NC(=O)c2c[nH]c3ccccc23)c1C", "Potency": "inconclusive: 13 µM [activator, partial curve]"},
      {"smiles": "COc1ccc(NC(=O)CN(C)S(=O)(=O)c2ccc3[nH]c4c(c3c2)CCCC4)cc1Cl", "Potency": "inconclusive: 29.1 µM [falling, single point]"},
      {"smiles": "COC(=O)c1ccc(Nc2cc(C)nc3ccc(C)cc23)cc1", "Potency": "inconclusive: 0.13 µM [falling, full curve, poor fit]"},
      {"smiles": "O=C(NCc1ccc2c(c1)OCO2)C(c1ccco1)N(C(=O)c1csnn1)c1ccccc1", "note": "(stereo unspecified)", "Potency": "inconclusive: 5.17 µM [falling, single point]"},
      {"smiles": "CC(C)(C)c1ccc(C(=O)NC(=S)N2CCCCCC2)cc1", "Potency": "inconclusive: 20.6 µM [falling, single point]"},
      {"smiles": "CC(C)=CC(=O)Nc1ccccc1Br", "Potency": "inactive"},
      {"smiles": "CC(C)N(C(=O)[C@H]1C[C@H](CC(=O)NCc2cccc(C(F)(F)F)c2)C(=O)N2CCc3c([nH]c4cc(-c5ccco5)ccc34)[C@]12C)C(C)C", "Potency": "inconclusive: 25.9 µM [falling, single point]"},
      {"smiles": "O=C(CSc1ncnc2nc[nH]c12)c1ccc2ccccc2c1", "Potency": "inconclusive: 14.6 µM [falling, single point]"},
      {"smiles": "CCc1ccc(/C=C2/Sc3ccccc3N(CC(=O)NCCCN3CCOCC3)C2=O)cc1", "Potency": "inactive"},
      {"smiles": "Cc1cccc(-n2c(=O)c3c(c4cc(C)ccc4n3C)n(Cc3ccccc3F)c2=O)c1", "Potency": "inconclusive: 0.82 µM [activator, partial curve, poor fit]"},
      {"smiles": "COc1ccccc1N1CCN(S(=O)(=O)CCNC(=O)c2cc(OC)c(OC)c(OC)c2)CC1", "Potency": "inactive"},
      {"smiles": "Cc1ccc(/C(N)=N/OC(=O)CSc2ccccc2)cc1", "Potency": "inconclusive: 5.17 µM [activator, partial curve]"},
      {"smiles": "Cc1ccc(NS(=O)(=O)c2ccc3c(ccn3C)c2)cc1C", "Potency": "inconclusive: 32.6 µM [falling, single point]"},
      {"smiles": "Cc1nn(C(C)(C)C)c(OC(=O)C2CCCC2)c1S(=O)(=O)c1ccccc1", "Potency": "inconclusive: 16.4 µM [falling, single point]"},
      {"smiles": "CC1=C(C(=O)OCC2CCCCC2)C(c2c(F)cccc2Cl)CC(=O)N1", "note": "(stereo unspecified)", "Potency": "inconclusive: 16.4 µM [falling, partial curve]"},
      {"smiles": "CCOC(=O)CSC1=NC(=O)/C(=C/c2ccc(Br)cc2)S1", "Potency": "inconclusive: 20.6 µM [activator, single point]"},
      {"smiles": "CCOc1ccccc1NC(=O)C1CCN(C(=O)Cc2ccccc2)CC1", "Potency": "inconclusive: 9.2 µM [falling, partial curve, poor fit]"},
      {"smiles": "CC1CCCCC12NC(=O)N(CC(=O)NCC(=O)Nc1ccc(F)c(F)c1F)C2=O", "note": "(stereo unspecified)", "Potency": "inactive"},
      {"smiles": "COc1ccc(C)cc1NC(=O)CCS(=O)(=O)c1ccc2c(c1)CC(=O)N2C", "Potency": "inactive"},
      {"smiles": "COc1ccc(C2C=C(C34CC5CC(CC(C5)C3)C4)NC(=S)N2)cc1OC", "note": "(stereo unspecified)", "Potency": "inconclusive: 20.6 µM [falling, partial curve]"},
      {"smiles": "FC(F)(F)c1ccc(C2[C@H]3CN(Cc4cccnc4)[C@H](c4ccccc4)C34CC2(c2ccccc2)C4)cc1", "note": "(stereo partly specified)", "Potency": "inconclusive: 16.4 µM [falling, single point]"},
      {"smiles": "O=C(Cn1nc(C(F)(F)F)c2c1CCC2)NCc1ccc(Cl)cc1", "Potency": "inconclusive: 8.2 µM [falling, partial curve, poor fit]"},
      {"smiles": "Cc1ccc(Sc2nnc(Cc3ccccc3)c3ccccc23)cc1", "Potency": "inconclusive: 29.1 µM [falling, single point]"},
      {"smiles": "CCc1ccc(NC(=O)C(=O)NCC2CCCN2S(=O)(=O)c2cccs2)cc1", "note": "(stereo unspecified)", "Potency": "inconclusive: 23.1 µM [falling, single point]"},
      {"smiles": "Cc1nc(NCCc2ccc(S(N)(=O)=O)cc2)c2c(C)c(C)sc2n1", "Potency": "inconclusive: 29.1 µM [falling, single point]"},
      {"smiles": "COc1cccc(/C=N/N2C(=O)CSC2=S)c1O", "Potency": "inactive"},
      {"smiles": "CCOC(=O)c1c(-c2ccc(C)cc2C)csc1NC(=O)CSc1nnnn1C", "Potency": "inconclusive: 29.1 µM [falling, single point]"},
      {"smiles": "COc1cccc(Cn2c(=O)n(-c3ccc(Br)cc3F)c(=O)c3sc4ccccc4c32)c1", "Potency": "inactive"}
    ]}
  ]
}
